Measurements from patent US20020177193A1.
These are yes or no findings as the source states them, for the method shown. Some binding calls cover weakened binding; strength is not graded here.

Sequences of proteins named here, by UniProt entry; tags and fusion partners are left off. A change or cut given only in a name is not applied to a line headed by its entry. Residues count along the entry.
UniProt P16234, residues 24-524: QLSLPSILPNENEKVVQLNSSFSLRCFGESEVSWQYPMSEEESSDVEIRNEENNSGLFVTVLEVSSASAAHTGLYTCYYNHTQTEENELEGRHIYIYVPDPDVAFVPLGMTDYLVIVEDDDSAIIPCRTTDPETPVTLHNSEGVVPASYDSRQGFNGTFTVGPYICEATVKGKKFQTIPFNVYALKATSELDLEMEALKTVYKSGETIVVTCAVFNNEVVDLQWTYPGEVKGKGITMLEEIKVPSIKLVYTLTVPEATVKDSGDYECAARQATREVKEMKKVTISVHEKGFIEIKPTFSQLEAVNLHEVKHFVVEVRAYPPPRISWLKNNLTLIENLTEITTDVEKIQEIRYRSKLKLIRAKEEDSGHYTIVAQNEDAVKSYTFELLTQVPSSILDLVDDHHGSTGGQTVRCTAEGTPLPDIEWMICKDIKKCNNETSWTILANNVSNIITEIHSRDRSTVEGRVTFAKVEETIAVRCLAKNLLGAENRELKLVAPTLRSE
UniProt Q9NRA1: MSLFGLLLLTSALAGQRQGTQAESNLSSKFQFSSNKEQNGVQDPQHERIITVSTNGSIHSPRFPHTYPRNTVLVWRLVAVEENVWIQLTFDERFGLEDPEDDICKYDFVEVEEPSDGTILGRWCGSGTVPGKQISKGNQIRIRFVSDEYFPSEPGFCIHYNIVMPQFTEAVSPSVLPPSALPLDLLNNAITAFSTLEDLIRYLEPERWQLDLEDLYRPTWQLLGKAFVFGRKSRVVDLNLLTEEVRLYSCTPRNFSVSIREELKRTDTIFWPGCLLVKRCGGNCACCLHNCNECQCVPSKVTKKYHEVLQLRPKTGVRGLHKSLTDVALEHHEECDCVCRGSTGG

Target: PDGF receptor α (R&D Systems) (UniProt P16234)
Test: 10 ng/mL 125I-zvegf3 on cultured cells, with unlabelled zvegf3, VEGF, PDGF-BB, PDGF receptor α or PDGF receptor β-Fc as competitors; gamma counting

binding: binds
Substance: recombinant zvegf3 growth factor domain (residues 235-345 of SEQ ID NO: 2), produced in BHK 570 cells (from UniProt Q9NRA1 235-345) (ligand)
